# Reference: the supplement of paper PMC12067093, “Discovery and optimisation of a covalent ligand for TRIM25 and its application to targeted protein ubiquitination” (Chemical Science, 2025)
# By UniProt entry, the sequences of proteins in these tests, tags left out. Where a name states a change or a piece, a line headed by the entry shows the natural chain unless it says otherwise.
# UniProt Q5T280: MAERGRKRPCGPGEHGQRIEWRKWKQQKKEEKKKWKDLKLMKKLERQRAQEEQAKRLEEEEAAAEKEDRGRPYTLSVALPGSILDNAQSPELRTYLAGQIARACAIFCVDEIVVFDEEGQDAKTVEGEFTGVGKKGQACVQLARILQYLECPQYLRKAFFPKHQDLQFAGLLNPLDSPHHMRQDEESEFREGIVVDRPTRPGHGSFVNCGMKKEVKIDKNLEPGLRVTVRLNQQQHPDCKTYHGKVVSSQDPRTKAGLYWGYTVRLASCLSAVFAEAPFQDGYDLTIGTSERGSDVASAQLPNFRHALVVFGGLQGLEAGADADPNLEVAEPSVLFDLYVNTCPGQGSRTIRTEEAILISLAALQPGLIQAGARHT
# UniProt Q9UBP0: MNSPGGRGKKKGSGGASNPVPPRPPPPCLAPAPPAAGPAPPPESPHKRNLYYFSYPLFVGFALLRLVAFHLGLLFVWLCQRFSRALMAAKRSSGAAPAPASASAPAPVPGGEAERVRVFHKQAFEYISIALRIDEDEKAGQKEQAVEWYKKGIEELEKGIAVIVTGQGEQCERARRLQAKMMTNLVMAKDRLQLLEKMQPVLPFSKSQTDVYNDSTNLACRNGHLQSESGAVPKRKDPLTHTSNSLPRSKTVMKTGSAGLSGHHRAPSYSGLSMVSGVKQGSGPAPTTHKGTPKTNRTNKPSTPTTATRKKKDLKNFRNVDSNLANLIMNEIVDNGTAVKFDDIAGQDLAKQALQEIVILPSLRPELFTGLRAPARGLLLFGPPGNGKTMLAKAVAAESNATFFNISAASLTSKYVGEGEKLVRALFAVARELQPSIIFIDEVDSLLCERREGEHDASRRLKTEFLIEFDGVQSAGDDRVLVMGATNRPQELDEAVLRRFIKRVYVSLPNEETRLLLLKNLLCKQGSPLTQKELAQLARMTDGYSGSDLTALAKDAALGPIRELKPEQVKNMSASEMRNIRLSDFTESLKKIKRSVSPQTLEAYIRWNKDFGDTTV
# UniProt Q8NCJ5: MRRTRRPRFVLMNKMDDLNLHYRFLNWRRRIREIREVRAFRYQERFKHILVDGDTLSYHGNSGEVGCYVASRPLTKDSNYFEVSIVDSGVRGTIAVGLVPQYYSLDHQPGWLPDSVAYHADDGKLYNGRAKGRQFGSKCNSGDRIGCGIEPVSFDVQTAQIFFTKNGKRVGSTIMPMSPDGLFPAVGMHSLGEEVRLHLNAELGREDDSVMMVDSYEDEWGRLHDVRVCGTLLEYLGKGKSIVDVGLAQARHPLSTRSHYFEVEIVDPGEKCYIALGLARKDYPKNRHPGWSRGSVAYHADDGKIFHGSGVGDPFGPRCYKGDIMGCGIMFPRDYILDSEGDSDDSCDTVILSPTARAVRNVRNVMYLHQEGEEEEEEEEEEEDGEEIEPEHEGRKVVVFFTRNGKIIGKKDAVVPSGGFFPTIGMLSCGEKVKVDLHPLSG
# UniProt Q8NB90: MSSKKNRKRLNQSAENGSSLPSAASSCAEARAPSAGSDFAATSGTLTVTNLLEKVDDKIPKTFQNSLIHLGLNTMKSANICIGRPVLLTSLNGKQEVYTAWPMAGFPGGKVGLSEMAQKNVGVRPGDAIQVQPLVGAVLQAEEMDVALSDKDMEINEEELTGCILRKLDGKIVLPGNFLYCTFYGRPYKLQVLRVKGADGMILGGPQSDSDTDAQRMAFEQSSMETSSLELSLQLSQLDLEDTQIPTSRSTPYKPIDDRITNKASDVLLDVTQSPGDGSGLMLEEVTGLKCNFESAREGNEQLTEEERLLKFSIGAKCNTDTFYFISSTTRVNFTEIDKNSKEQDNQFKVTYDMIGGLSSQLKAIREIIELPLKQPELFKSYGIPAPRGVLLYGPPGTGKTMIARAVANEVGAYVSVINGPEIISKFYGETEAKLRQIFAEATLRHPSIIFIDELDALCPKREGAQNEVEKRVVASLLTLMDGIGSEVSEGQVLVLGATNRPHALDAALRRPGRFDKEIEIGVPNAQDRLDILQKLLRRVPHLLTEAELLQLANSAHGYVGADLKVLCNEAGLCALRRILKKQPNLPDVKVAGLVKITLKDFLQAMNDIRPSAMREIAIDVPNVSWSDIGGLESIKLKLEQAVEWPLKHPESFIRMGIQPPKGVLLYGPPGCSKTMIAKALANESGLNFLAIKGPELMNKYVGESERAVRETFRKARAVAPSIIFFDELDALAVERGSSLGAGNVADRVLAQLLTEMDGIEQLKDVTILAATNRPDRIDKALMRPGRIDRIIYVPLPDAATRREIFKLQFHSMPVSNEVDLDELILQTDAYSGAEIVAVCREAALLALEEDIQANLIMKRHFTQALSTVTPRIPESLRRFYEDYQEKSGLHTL
# UniProt Q96R06: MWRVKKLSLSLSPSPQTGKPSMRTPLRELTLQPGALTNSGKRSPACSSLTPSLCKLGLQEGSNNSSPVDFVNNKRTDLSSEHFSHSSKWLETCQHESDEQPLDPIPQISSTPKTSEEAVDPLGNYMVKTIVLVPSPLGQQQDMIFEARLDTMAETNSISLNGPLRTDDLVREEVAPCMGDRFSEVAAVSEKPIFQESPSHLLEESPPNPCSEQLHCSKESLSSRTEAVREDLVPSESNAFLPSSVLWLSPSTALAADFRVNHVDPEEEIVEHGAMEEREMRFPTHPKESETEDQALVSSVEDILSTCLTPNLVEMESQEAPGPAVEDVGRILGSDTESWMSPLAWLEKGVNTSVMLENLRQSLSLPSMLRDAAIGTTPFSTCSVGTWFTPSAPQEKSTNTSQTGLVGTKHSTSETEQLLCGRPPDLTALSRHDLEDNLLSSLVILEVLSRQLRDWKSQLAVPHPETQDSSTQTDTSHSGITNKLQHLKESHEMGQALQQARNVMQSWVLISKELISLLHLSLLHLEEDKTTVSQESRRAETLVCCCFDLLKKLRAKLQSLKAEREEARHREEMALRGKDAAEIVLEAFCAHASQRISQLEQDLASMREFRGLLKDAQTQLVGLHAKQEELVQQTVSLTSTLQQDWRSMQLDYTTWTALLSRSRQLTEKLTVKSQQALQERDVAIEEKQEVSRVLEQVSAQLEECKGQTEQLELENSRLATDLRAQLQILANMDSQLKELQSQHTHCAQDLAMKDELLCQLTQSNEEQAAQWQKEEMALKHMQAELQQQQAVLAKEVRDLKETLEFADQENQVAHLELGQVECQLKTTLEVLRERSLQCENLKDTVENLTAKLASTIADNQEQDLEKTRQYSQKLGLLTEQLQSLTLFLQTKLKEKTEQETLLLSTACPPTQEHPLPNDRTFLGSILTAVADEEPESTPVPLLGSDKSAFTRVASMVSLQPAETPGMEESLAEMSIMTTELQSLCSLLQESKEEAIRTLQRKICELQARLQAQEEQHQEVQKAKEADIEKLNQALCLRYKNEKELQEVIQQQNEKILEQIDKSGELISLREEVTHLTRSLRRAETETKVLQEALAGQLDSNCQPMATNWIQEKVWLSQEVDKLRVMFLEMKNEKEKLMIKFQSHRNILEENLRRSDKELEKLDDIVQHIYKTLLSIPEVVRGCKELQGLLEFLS
# UniProt P19623: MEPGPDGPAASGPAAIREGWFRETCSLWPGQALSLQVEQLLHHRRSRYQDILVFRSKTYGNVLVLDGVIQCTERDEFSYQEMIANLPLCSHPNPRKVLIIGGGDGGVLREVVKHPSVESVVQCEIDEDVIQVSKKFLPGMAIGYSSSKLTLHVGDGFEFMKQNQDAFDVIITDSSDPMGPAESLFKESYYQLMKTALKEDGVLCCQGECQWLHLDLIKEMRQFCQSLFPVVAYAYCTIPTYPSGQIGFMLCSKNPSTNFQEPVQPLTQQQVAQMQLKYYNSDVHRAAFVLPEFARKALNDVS
# UniProt O76094: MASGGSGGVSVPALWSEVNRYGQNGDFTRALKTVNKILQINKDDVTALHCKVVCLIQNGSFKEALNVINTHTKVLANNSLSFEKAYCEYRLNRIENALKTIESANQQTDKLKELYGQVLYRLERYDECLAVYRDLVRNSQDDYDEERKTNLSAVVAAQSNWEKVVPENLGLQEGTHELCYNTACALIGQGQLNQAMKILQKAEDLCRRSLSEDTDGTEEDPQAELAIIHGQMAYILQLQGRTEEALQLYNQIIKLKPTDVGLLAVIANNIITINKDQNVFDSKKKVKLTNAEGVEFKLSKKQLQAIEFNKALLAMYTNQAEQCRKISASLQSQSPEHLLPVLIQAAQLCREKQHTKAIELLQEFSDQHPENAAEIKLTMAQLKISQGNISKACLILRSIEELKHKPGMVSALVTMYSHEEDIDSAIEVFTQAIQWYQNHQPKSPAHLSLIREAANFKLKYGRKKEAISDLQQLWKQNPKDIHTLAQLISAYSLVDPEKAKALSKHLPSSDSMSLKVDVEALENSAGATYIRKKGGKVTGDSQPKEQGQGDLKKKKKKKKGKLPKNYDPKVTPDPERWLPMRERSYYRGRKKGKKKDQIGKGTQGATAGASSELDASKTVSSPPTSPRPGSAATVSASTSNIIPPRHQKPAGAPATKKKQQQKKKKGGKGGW
# This is one part of the list.
# Compound: Cc1cc(ccc1-c1ccccc1)C(=O)N1CCCN(CC1)C(=O)CCl [compound 10]
# Assay: probe-labelled cysteine peptide fold change vs DMSO (competition) (log2 fold change); higher = less target engagement (more negative = stronger competition)
# Details: THP-1, incubation time: 4 h
# 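Note: competitive profiling in live THP-1 cells: cysteine peptides tagged with an iodoacetamide desthiobiotin (IA-DTB) probe, intensity after compound treatment relative to DMSO-treated cells.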
Target,probe-labelled cysteine peptide fold change (10 µM),probe-labelled cysteine peptide fold change (50 µM)
SPOUT1_Q5T280_239_LNQQQHPDCK (UniProt Q5T280),0.156,-0.184
SPAST_Q9UBP0_220_SQTDVYNDSTNLACR (UniProt Q9UBP0),-0.252,-0.251
SPRYD3_Q8NCJ5_272_CYIALGLAR (UniProt Q8NCJ5),0.214,0.233
SPATA5_Q8NB90_163_DMEINEEELTGCILR (UniProt Q8NB90),-0.0251,-0.279
SPAG5_Q96R06_420_HSTSETEQLLCGRPPDLTALSR (UniProt Q96R06),-0.145,-0.399
SRM_P19623_25_ETCSLWPGQALSLQVEQLLHHR (UniProt P19623),0.023,0.121
SRP72_O76094_54_VVCLIQNGSFK (UniProt O76094),0.0906,-0.275
